Among the data in article PMC12376730 are binding values, retold here.

In this test the target is T1, HrpB4 (Xanthomonas euvesicatoria) (UniProt Q56783).
T1 sequence: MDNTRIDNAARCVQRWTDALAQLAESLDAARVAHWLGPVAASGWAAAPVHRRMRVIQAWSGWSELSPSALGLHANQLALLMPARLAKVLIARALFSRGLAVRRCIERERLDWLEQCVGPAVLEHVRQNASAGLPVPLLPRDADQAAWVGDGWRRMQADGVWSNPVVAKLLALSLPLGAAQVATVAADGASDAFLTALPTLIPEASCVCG
Kind of test: two-hybrid; BACTH (bacterial adenylate cyclase-based two-hybrid): T18 and T25 fusions co-expressed in E. coli reporter strain DHM1; cultures spotted on LB indicator plates with X-gal and 2 mM IPTG, five to six days at room temperature in the dark; blue colonies show interaction; each fusion tested against the T25 or T18 domain alone.

These are yes or no findings as the source states them, for the method shown. Binding can be weak; no strength is given.

Regarding “HrcQATG (the annotated HrcQ protein, which lacks the N-terminal 30 amino acids) (Xanthomonas euvesicatoria)”, the binding entry is recorded as “binds weakly”.
